PubChem BioAssay AID504764 | Drosophila RNAi Screening Center – 2011
The screen tested about 22,000 reagents; shown is a random part of those that have a named target and a result. Over the whole deposit, 403 (1.9%) got an active call. 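Unnormalised raw counts per well; ratio z-scores behind the hit calls and whether each hit raises or lowers signal are not deposited.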 Unmarked entries are inactive. Reagents against one gene are numbered here. No sequences are given here. Not stated in the record: the amount of reagent.

- Purpose: 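Genes whose knock-down alters Notch-dependent transcription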 (primary screen)
- Cell system: Drosophila Kc167 cells
- Reagent: long dsRNA against Drosophila genes
- Duration: about 5 days (4 days dsRNA, then 24 h after transfection)
- Treatment: transfection of constitutively active membrane-tethered Notch lacking the extracellular domain, read 24 h later
- Measurement: 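Firefly luciferase from an E(spl)m3 reporter with active Notch, plus control-promoter and uninduced reporter wells for normalisation; unnormalised counts, duplicate wells a and b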
- Direction: induced reporter light, run 1, well a and induced reporter light, run 1, well b: higher = more light from the Notch target reporter with active Notch; control promoter light, run 1, well a and control promoter light, run 1, well b: higher = more light from the viral control promoter (cell number, transfection, viability); uninduced reporter light, run 1, well a: higher = more light from the Notch target reporter without active Notch
- Hit rule: 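Hit if the duplicate-averaged log2 ratio of induced to control-promoter light gives a plate-wise z beyond ±2, or induced to uninduced beyond ±1.8; weak-control or discordant-duplicate wells dropped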
- Calls: active = modifier hit (raised or lowered Notch signal); inactive = not a hit

target gene | reagent no. | induced reporter light, run 1, well a | induced reporter light, run 1, well b | control promoter light, run 1, well a | control promoter light, run 1, well b | uninduced reporter light, run 1, well a
Dhod | 1 | 84620 | 80695 | 62525 | 46090 | 7195
Sox15 | 1 | 94840 | 88655 | 1.21e5 | 1.26e5 | 8785
Ip6k | 1 | 1.55e5 | 1.96e5 | 1.57e5 | 1.41e5 | 15735
viaf | 1 | 1.05e5 | 99335 | 74240 | 31400 | 8570
CG8060 | 1 | 1.02e5 | 1.16e5 | 2.03e5 | 2.09e5 | 9905
RunxA | 1 | 85140 | 77715 | 90765 | 1.11e5 | 6710
RunxA | 2 | 17230 | 15370 | 7130 | 8475 | 5110
RunxA | 3 | 90515 | 1.05e5 | 1.46e5 | 1.45e5 | 13850
CG7990 | 1 | 1.01e5 | 96600 | 1.19e5 | 1.02e5 | 7282
CG7990 | 2 | 10440 | 11065 | 12760 | 10210 | 4292
CG34038 | 1 | 1.84e5 | 2.04e5 | 2.19e5 | 2.44e5 | 10420
APP-BP1 | 1 | 1.62e5 | 1.07e5 | 1.87e5 | 1.86e5 | 6575
Cpr49Ac | 1 | 94495 | 87580 | 60990 | 76090 | 6205
Nf1 | 1 | 2.22e5 | 1.87e5 | 2.69e5 | 3.24e5 | 16085
rept | 1 | 68375 | 71075 | 67765 | 95045 | 4070
slf | 1 | 1.22e5 | 1.51e5 | 1.16e5 | 1.22e5 | 8365
BI-1 | 1 | 96885 | 83290 | 70300 | 20955 | 7495
Oatp58Da | 1 | 52420 | 33620 | 41350 | 62780 | 1810
CG33768 | 1 | 1.19e5 | 1.29e5 | 1.26e5 | 1.01e5 | 10195
mud | 1 | 1.03e5 | 90830 | 1.01e5 | 1.04e5 | 7982

2 entries from above, set out differently.
target gene	reagent no.	induced reporter light, run 1, well a	induced reporter light, run 1, well b	control promoter light, run 1, well a	control promoter light, run 1, well b	uninduced reporter light, run 1, well a
Oatp58Da	1	52420	33620	41350	62780	1810
CG33768	1	1.19e5	1.29e5	1.26e5	1.01e5	10195
